Laboratory results: US7803833B2, “Compounds” (Glaxo Group Limited, priority 2005, dated 2010)
Counter-ions that a name gives are not always drawn. Some results were stated once for a whole list of compounds, not compound by compound.

The chains behind the UniProt entries cited, without tags or fusion partners.
UniProt Q9NY46, whole entry: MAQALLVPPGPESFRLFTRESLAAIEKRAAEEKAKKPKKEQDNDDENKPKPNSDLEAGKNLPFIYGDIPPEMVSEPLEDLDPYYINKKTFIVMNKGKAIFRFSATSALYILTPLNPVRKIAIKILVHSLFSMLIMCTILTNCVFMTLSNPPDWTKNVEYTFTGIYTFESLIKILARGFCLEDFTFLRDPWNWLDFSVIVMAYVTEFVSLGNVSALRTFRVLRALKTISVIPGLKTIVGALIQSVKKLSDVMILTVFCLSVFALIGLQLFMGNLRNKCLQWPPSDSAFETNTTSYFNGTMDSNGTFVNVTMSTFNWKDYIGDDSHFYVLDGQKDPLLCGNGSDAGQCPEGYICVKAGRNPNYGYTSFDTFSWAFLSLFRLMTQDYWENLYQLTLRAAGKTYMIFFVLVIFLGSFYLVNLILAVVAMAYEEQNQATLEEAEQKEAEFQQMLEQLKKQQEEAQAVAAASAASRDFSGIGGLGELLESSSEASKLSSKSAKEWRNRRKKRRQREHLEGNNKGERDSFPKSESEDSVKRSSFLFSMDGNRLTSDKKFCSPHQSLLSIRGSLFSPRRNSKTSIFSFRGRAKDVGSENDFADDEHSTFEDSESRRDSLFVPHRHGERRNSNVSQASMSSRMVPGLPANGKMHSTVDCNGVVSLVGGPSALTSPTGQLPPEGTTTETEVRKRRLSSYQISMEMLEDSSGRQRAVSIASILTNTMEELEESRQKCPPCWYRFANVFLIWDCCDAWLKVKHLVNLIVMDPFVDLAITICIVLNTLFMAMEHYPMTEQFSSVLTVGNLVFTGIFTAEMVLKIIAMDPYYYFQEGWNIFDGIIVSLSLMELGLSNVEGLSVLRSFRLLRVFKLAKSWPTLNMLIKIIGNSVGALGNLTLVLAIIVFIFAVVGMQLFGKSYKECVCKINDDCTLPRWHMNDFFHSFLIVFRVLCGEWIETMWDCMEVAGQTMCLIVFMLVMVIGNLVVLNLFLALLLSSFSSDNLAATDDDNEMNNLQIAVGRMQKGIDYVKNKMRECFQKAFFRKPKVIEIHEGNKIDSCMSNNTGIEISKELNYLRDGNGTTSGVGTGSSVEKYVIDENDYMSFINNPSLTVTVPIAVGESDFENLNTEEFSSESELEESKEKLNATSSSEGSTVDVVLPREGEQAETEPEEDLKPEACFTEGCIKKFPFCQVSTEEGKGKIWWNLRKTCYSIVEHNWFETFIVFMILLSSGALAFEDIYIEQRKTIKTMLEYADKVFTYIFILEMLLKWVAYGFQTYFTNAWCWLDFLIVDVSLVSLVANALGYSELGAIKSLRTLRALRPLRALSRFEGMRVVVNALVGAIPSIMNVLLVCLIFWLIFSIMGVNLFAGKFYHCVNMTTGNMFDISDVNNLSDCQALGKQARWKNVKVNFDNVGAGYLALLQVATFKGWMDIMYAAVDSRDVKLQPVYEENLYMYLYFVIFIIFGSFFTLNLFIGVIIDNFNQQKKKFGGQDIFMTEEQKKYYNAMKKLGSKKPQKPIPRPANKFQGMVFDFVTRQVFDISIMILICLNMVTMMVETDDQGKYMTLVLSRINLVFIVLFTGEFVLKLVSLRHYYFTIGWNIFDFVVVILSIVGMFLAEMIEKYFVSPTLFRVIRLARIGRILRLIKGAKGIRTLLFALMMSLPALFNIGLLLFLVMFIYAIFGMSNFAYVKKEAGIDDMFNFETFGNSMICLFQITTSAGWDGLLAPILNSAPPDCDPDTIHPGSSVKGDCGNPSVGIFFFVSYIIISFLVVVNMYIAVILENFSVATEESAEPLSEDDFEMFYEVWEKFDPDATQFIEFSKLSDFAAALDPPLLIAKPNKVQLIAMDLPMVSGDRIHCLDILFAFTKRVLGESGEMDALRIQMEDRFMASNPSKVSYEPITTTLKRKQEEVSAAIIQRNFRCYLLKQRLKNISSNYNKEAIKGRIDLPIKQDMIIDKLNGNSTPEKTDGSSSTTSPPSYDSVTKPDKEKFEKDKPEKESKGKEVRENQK

Target: T1, hNaV1.3 channels (Homo sapiens, UniProt Q9NY46)
T1 construct: expressed in transfected cells
Assay: Na channel assay: IonWorksHT electrophysiology, use-dependent inhibition
Type: cell-based
Settings: CHO cells expressing hNaV1.3; 10th versus 1st depolarising pulse, 10 Hz, holding -90 mV to 0 mV

Structure (SMILES)	use-dependent pUD15 (concentration producing 15% use-dependent inhibition)
O=C1NCC[C@]12CCC[C@H](c1ccc(OCc3ccccc3F)cc1)N2 (single isomer, unassigned) [Example 21, hydrochloride]	≥ 4.5
O=C1NCC[C@@]12CCC[C@@H](c1ccc(OCc3ccccc3F)cc1)N2 (single isomer, unassigned) [Example 22, hydrochloride]	≥ 4.5
C[C@@]1(C(N)=O)CC[C@H](c2ccc(OCc3ccccc3F)cc2)N1.Cl [Example 1, (5R)-5-(4-{[(2-Fluorophenyl)methyl]oxy}phenyl)-2-methyl-L-prolinamide hydrochloride]	≥ 4.5
C[C@@]1(C(N)=O)CC[C@H](c2ccc(OCc3ccccc3C#N)cc2)N1 [Example 2, (5R)-5-(4-{[(2-cyanophenyl)methyl]oxy}phenyl)-2-methyl-L-prolinamide]	≥ 4.5
C[C@@]1(C(N)=O)CC[C@H](c2ccc(Oc3ccccc3C#N)cc2)N1 [Example 3, (5R)-5-{4-[(2-cyanophenyl)oxy]phenyl}-2-methyl-L-prolinamide]	≥ 4.5
C[C@]1(C(N)=O)CC[C@@H](c2ccc(OCc3ccccc3)cc2)N1 [Example 4, (5S)-2-methyl-5-{4-[(phenylmethyl)oxy]phenyl}-D-prolinamide]	≥ 4.5
C[C@]1(C(N)=O)CC[C@@H](c2ccc(OCc3ccccc3F)cc2)N1 [Example 5, (5S)-5-(4-{[(2-fluorophenyl)methyl]oxy}phenyl)-2-methyl-D-prolinamide]	≥ 4.5
N#Cc1ccccc1COc1ccc([C@H]2CC[C@]3(CCNC3=O)N2)cc1 [Example 7, 2-[({4-[(2R,5R)-6-oxo-1,7-diazaspiro[4.4]non-2-yl]phenyl}oxy)methyl]benzonitrile]	≥ 4.5
N#Cc1ccccc1Oc1ccc([C@H]2CC[C@]3(CCNC3=O)N2)cc1 [Example 8, 2-({4-[(2R,5R)-6-oxo-1,7-diazaspiro[4.4]non-2-yl]phenyl}oxy)benzonitrile]	≥ 4.5
CN1CC[C@]2(CC[C@H](c3ccc(OCc4ccccc4F)cc3)N2)C1=O [Example 9, (2R,5R)-2-(4-{[(2-Fluorophenyl)methyl]oxy}phenyl)-7-methyl-1,7-diazaspiro[4.4]nonan-6-one hydrochloride]	≥ 4.5
Cl.O=C1NCC[C@]12CC[C@H](c1cccc(OCc3ccccc3F)c1)N2 [Example 11, (2R,5R)-2-(3-{[(2-Fluorophenyl)methyl]oxy}phenyl)-1,7-diazaspiro[4.4]nonan-6-one hydrochloride]	≥ 4.5
CN1CC[C@]2(CC[C@H](c3cccc(OCc4ccccc4F)c3)N2)C1=O.Cl [Example 12, (2R,5R)-2-(3-{[(2-Fluorophenyl)methyl]oxy}phenyl)-7-methyl-1,7-diazaspiro[4,4]nonan-6-one hydrochloride]	≥ 4.5
Cl.O=C1NCC=CC[C@]12CC[C@H](c1ccc(OCc3ccccc3F)cc1)N2 [Example 13, (2R,5R)-2-(4-{[(2-Fluorophenyl)methyl]oxy}phenyl)-1,7-diazaspiro[4.6]undec-9-en-6-one hydrochloride]	≥ 4.5
Cl.O=C1NCCC[C@]12CC[C@H](c1ccc(OCc3ccccc3F)cc1)N2 [Example 14, (2R,5S)-2-(4-{[(2-Fluorophenyl)methyl]oxy}phenyl)-1,7-diazaspiro[4.5]decan-6-one hydrochloride]	≥ 4.5
Cl.O=C1NCCC[C@]12CC[C@@H](c1ccc(OCc3ccccc3F)cc1)N2 [Example 15, (2S,5S)-2-(4-{[(2-Fluorophenyl)methyl]oxy}phenyl)-1,7-diazaspiro[4.5]decan-6-one hydrochloride]	≥ 4.5
COc1cc([C@H]2CC[C@@](C)(C(N)=O)N2)ccc1OCc1ccccc1F.Cl [Example 16, (5R)-5-[4-{[(2-Fluorophenyl)methyl]oxy}-3-(methyloxy)phenyl]-2-methyl-L-prolinamide hydrochloride]	≥ 4.5
COC[C@@]1(C(N)=O)CC[C@H](c2ccc(OCc3ccccc3F)c(OC)c2)N1.Cl [Example 17, (5R)-5-[4-{[(2-Fluorophenyl)methyl]oxy}-3-(methyloxy)phenyl]-2-[(methyloxy)methyl]-L-prolinamide hydrochloride]	≥ 4.5
COC[C@@]1(C(N)=O)CC[C@H](c2ccc(OCc3ccccc3F)cc2)N1.Cl [Example 18, (5R)-5-(4-{[(2-Fluorophenyl)methyl]oxy}phenyl)-2-[(methyloxy)methyl]-L prolinamide hydrochloride]	≥ 4.5
Cl.NC(=O)[C@]1(CO)CC[C@H](c2ccc(OCc3ccccc3F)cc2)N1 [Example 19, (5R)-5-(4-{[(2-Fluorophenyl)methyl]oxy}phenyl)-2-(hydroxymethyl)-L-prolinamide hydrochloride]	≥ 4.5
